Assay results as given in PubChem BioAssay AID2685 (National Center for Advancing Translational Sciences (NCATS), 2010).
This is one part of the list. Shown are side measurements of this screen, not its main read-out; they come without a call. Compounds called inactive in the main read-out are mostly missing here. Potencies come from curve fits of mixed quality, noted in brackets.

Assay: qHTS Assay for Lipid Storage Modulators in Drosophila S3 Cells;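 for cell number change: cells counted by Cell Tracker Red CMTPX staining in the red channel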
Details: BODIPY lipid droplet fluorescence, 18-24 h; for cell number change: measured here: cell count max response, cells fed with added oleic acid
Procedure, shortened: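 Laser-scanning cytometry quantifies lipid droplet accumulation (500–530 nm total intensity; droplet/cell object ratio) in oleic acid-fed (400 uM added) Drosophila S3 cells treated with a concentration series. 20 uM Triacsin C defined 100% inhibition.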

[1] = measured here: cell number channel AC50, cells fed with added oleic acid
[2] = measured here: lipid fluorescence (Fed channel) AC50, cells fed with added oleic acid

| SMILES | cell number change [%] | AC50 [1] | AC50 [2] |
| --- | --- | --- | --- |
| CCOC(=O)c1c(O)c2ccccc2n(C)c1=O | 37.8 | 23.1 µM [rising, partial curve, poor fit] | – |
| Fc1ccc(Br)cc1C1C=C(c2cccnc2)Nc2ncnn21 (stereo not drawn) | 14.4 | – | – |
| O=C(CN(C(=O)c1csnn1)c1ccccc1C(F)(F)F)NCc1ccccc1 | 7.83 | 0.366 µM [rising, full curve, poor fit] | – |
| COc1ccc2[nH]c(=O)c(CN(Cc3cccs3)Cc3nnnn3Cc3ccccc3)cc2c1 | -13.9 | – | – |
| COc1ccc(CNC2CCCCC2C)c(OC)c1 (stereo not drawn) | -0.978 | – | 0.13 µM [falling, full curve, poor fit] |
| COc1ccc(-c2c(NC(=O)C(C)C)n(C)c3ccccc3c2=O)cc1 | 31.3 | 32.6 µM [rising, single point] | 29.1 µM [rising, single point] |
| O=C(CCN1CCOCC1)c1ccc(N2CCCCC2)cc1 | -66.7 | 10.3 µM [falling, single point] | – |
| O=C(c1ccc2c(c1)OCO2)N1CCN(S(=O)(=O)N2CCCCC2)CC1 | -39.5 | 4.61 µM [falling, partial curve, poor fit] | – |
| N#CC(C#N)=NNc1ccc([N+](=O)[O-])cc1 | 47.3 | 18.4 µM [rising, single point] | – |
| CN1CCN(/N=C/c2ccc(N(c3ccccc3)c3ccccc3)cc2)CC1 | 71.7 | 25.9 µM [rising, single point] | – |
| CC(=O)N1c2ccc(S(=O)(=O)N3CCC(C(=O)NC4CCCCC4C)CC3)cc2CC1C (stereo not drawn) | 26.3 | – | 0.58 µM [rising, single point] |
| CCOC(=O)Cn1c(=S)[nH]c2c(oc3ccc(Cl)cc32)c1=O | 51 | 7.31 µM [rising, partial curve] | 6.51 µM [rising, single point] |
| Cc1c(OCC(=O)N2CCC[C@@H]2C(=O)O)ccc2c3c(c(=O)oc12)CCC3 | 1.29 | – | – |
| O=C(NCCc1ccccn1)c1nc(Cn2cc([N+](=O)[O-])cn2)no1 | 2.86 | 3.26 µM [rising, single point] | – |
| COc1ccc(CN2CCN(c3cccc(C)c3C)CC2)cc1OC | – | 0.651 µM [falling, single point] | – |
| CCN(CC)CCCNC(=O)c1ccc2c3n(nc2c1)-c1ccc(Cl)cc1CO3 | -10 | – | 1.64 µM [rising, partial curve] |
| CC(=O)N(c1ccccc1)C1CC(C)N(C(=O)c2ccccc2)c2ccccc21 (stereo not drawn) | -22.3 | – | 6.51 µM [falling, single point] |
| O=C(CS(=O)(=O)c1ccc(C(F)(F)F)cn1)NNC(=O)c1ccccc1 | -5.48 | – | 0.82 µM [falling, full curve, poor fit] |
| CC(C)c1ccc(N2CC(C)(C)C2=O)cc1 | 0.678 | – | – |
| CCN(CC(=O)Nc1c(F)cccc1F)C(=O)CCCc1c[nH]c2ccccc12 | -70.7 | 3.16 µM [falling, partial curve] | 2.51 µM [falling, full curve] |
| COc1ccc(OC)c(S(=O)(=O)N2CCN(C(=O)NC3CCCCC3)CC2)c1 | -25.5 | – | 0.00461 µM [falling, full curve, poor fit] |

2 consecutive compounds from above, for reference:

| SMILES | cell number change [%] | AC50 [1] | AC50 [2] |
| --- | --- | --- | --- |
| COc1ccc2[nH]c(=O)c(CN(Cc3cccs3)Cc3nnnn3Cc3ccccc3)cc2c1 | -13.9 | – | – |
| COc1ccc(CNC2CCCCC2C)c(OC)c1 (stereo not drawn) | -0.978 | – | 0.13 µM [falling, full curve, poor fit] |

The list goes on:

| SMILES | cell number change [%] | AC50 [1] | AC50 [2] |
| --- | --- | --- | --- |
| Cc1ccc(C)c(NC(=O)CSc2nnc(CSc3nc(C)cc(C)n3)n2Cc2ccco2)c1 | -16.6 | – | – |
| CCC(c1nnnn1C1CCCC1)N1CCN(c2ccccc2)CC1 (stereo not drawn) | -28.2 | – | 11.6 µM [rising, partial curve] |
| O=C(NCCN1CCOCC1)C(=O)NCC1OCCCN1S(=O)(=O)c1cc(F)ccc1F (stereo not drawn) | -33.8 | 7.31 µM [falling, partial curve] | – |
| CCN(CC)C(=O)c1[nH]cnc1C(=O)Nc1ccc(Cl)cc1 | -26.2 | – | 29.1 µM [falling, single point] |
| O=C(NC1CCN(S(=O)(=O)c2ccc(F)cc2)CC1)C1CCCCC1 | – | – | 0.206 µM [falling, single point] |
| CC(C)N1CC(O)=C(c2nc3ccccc3c(=O)[nH]2)C1=N | – | – | 0.651 µM [rising, full curve] |
| COc1ccc(NC(=O)c2cc(-c3ccc(C)cc3)on2)cc1 | 24.8 | – | 4.61 µM [falling, single point] |
| CC(C)(C)NC(=O)C(Cc1ccccc1)N1C(=O)c2ccccc2C1=O (stereo not drawn) | -17.1 | – | 5.8 µM [falling, full curve] |
| O=C(c1ccco1)N1CCN(CC(O)Cn2c3ccccc3c3ccccc32)CC1 (stereo not drawn) | -34.2 | 7.31 µM [falling, partial curve] | 8.2 µM [falling, partial curve] |
| O=c1cc(-c2cccc([N+](=O)[O-])c2)[nH][nH]1 | -4.31 | – | 2.06 µM [falling, partial curve] |
| COc1ccc(C(=O)NC(C)CCCC(C)(C)O)cc1OC1CCN(C(C)=O)CC1 (stereo not drawn) | -3.02 | – | 29.1 µM [rising, single point] |
| Cc1cccc(N2C(N)=NC(N)=NC23CCCCC3)c1 | -18.4 | 5.17 µM [falling, partial curve, poor fit] | – |
| CCSc1nnc(NC(=O)CSc2nnc(CNC(=O)c3ccc(OC)cc3)o2)s1 | 8.11 | 2.06 µM [falling, partial curve] | 4.11 µM [falling, single point] |
| Cn1c(SCc2cc(=O)[nH]c3ccccc23)nnc1-c1ccc(Br)cc1 | 32.3 | 29.1 µM [rising, single point] | 8.2 µM [rising, partial curve] |
| CCOCCCn1c(=NC(=O)c2cccs2)c(C#N)cc2c(=O)n3cccc(C)c3nc21 | 40.7 | 29.1 µM [rising, single point] | – |
| CNc1nc(C)nc(-n2nc(C)cc2C)n1 | 32.9 | 23.1 µM [rising, single point] | – |
| CCCCSc1nnc(-c2c[nH]c3ccccc23)n1C | 3.63 | – | – |
| COc1ccccc1OCc1ccc(C(=O)NC2CCCCC2)o1 | 15.8 | – | 0.708 µM [falling, full curve] |
| CCOC(=O)CN1CC23C=CC(O2)C(C(=O)NCc2cccs2)C3C1=O (stereo not drawn) | – | – | 11.6 µM [falling, partial curve] |
| CCOc1ccccc1N(CC(=O)NCCc1ccc(OC)c(OC)c1)S(=O)(=O)c1ccccc1 | – | – | 0.231 µM [falling, partial curve, poor fit] |
| Cc1ccc(C(=O)N/C(=C\c2ccc(-c3ccccc3[N+](=O)[O-])o2)C(=O)NCCCN(C)C)cc1 | 0.708 | – | 1.84 µM [rising, partial curve, poor fit] |

Structural class: those above with two or more sulfur atoms (2)

| SMILES | cell number change [%] | AC50 [1] | AC50 [2] |
| --- | --- | --- | --- |
| Cc1ccc(C)c(NC(=O)CSc2nnc(CSc3nc(C)cc(C)n3)n2Cc2ccco2)c1 | -16.6 | – | – |
| CCSc1nnc(NC(=O)CSc2nnc(CNC(=O)c3ccc(OC)cc3)o2)s1 | 8.11 | 2.06 µM [falling, partial curve] | 4.11 µM [falling, single point] |

Continued:

| SMILES | cell number change [%] | AC50 [1] | AC50 [2] |
| --- | --- | --- | --- |
| CC(C)(C)OC(=O)N1CCC[C@H]1C(=O)NCC1CCC(C(=O)O)CC1 (stereo partly drawn) | 8.02 | – | 16.4 µM [rising, single point] |
| Cn1cnnc1SCC(=O)NCCC(c1ccccc1)c1ccccc1 | 66 | 23.1 µM [rising, single point] | 29.1 µM [rising, single point] |
| COc1ccc2oc(C(=O)CCC(=O)O)c(N)c2c1 | – | – | 0.116 µM [rising, single point] |
| CC(=O)CCN1C(=O)NC2(CCCc3ccccc32)C1=O (stereo not drawn) | -30.3 | – | 7.08 µM [falling, partial curve] |
| O=S(=O)(NNc1cccc(Cl)n1)c1ccc(Cl)cc1 | 0.276 | – | – |
| Cc1cccc(NC(=O)COC(=O)CCCC2=NS(=O)(=O)c3ccccc3N2)c1 | – | – | 20.6 µM [rising, single point] |
| O=C(Cn1cc2c(n1)CCCC2)Nc1ccccc1Cl | 31.8 | 16.4 µM [rising, single point] | – |
| Cc1nc2ccccc2nc1OCC(=O)Nc1ccc2ccccc2c1 | – | 1.64 µM [falling, partial curve] | 4.11 µM [rising, full curve] |
| O=C(CSc1nc2ccccc2[nH]1)Nc1ccc(F)cc1 | 3.13 | – | 0.00517 µM [falling, full curve, poor fit] |
| Clc1cccc(NCc2ccccc2)n1 | -37.8 | – | – |
| Clc1ccc(CNc2ccc(CNc3ncn[nH]3)cc2)c(Cl)c1 | 5.61 | 1.3 µM [rising, partial curve] | – |
| CC(Sc1nncn1C)C(=O)Nc1ccccc1-c1ccccc1 (stereo not drawn) | – | – | 1.3 µM [rising, full curve] |
| CCOc1ccc(OCC)c(NC(=O)CN2CCN(c3cccc(C)c3)CC2)c1 | 15.4 | – | 3.26 µM [rising, partial curve, poor fit] |
| Cc1ccc(NC2CCCN(C(=O)c3ccccn3)C2)cc1C (stereo not drawn) | 18.4 | 0.184 µM [rising, full curve, poor fit] | – |
| S=C(NCc1ccccc1)NCc1cccc(CNC(=S)NCc2ccccc2)c1 | -32.5 | 29.1 µM [falling, single point] | 5.17 µM [falling, full curve] |
| O=C(O)c1cc2nccc(-c3ccco3)n2n1 | 3.94 | – | 0.146 µM [falling, full curve] |
| COC(C(=O)Nc1ccc(F)cc1F)c1ccccc1 (stereo not drawn) | 53.2 | 18.4 µM [rising, single point] | – |
| O=C(NCC1CCCO1)c1ccccc1OCc1ccc(Cl)cc1 (stereo not drawn) | -186 | 23.1 µM [falling, partial curve] | – |
| O=c1oc2ccccc2n1Cn1c(=O)oc2ccccc21 | 9.27 | – | 0.651 µM [rising, full curve] |
| OCC1CCCCN1C(=S)NCc1ccco1 (stereo not drawn) | – | – | 6.51 µM [falling, single point] |
| CN(CC(=O)NC1CCCCCCC1)S(=O)(=O)c1cccc2cccnc12 | -38.9 | 11.6 µM [falling, partial curve, poor fit] | 1.46 µM [falling, partial curve] |
